Results are given in words; binding and its absence hold for the method and conditions named. Some binding calls cover weakened binding; strength is not graded here. Blank lines part the entries; values can stand above or below the binder they belong to.
Tests used:
[1] = target: human Galectin-9 CRD2 (residues 218-355) (human) (UniProt O00182); test: SPR
[2] = target: human Galectin-9 CRD2 (residues 218-355) (human) (UniProt O00182); test: bead binding, flow cytometry (FIG. 14)
[3] = target: galectin-9 on the HuProt array (UniProt O00182); test: HuProt protein array, cross-reactivity assay
[4] = target: cynomolgus monkey galectin-9 CRD2 (cynomolgus monkey); test: biolayer interferometry, antibody on anti-Fab probes
[5] = target: human Galectin-9 CRD2 (residues 218-355) (human) (UniProt O00182); test: as above
[6] = target: rat galectin-9 CRD2 (rat) (UniProt P97840); test: as above
[7] = target: human Galectin-9 CRD2 (residues 218-355) (human) (UniProt O00182); test: SPR, hGalectin-9 CRD2 immobilized, antibody injected
[8] = target: human Galectin-9 CRD2 (residues 218-355) (human) (UniProt O00182); test: biotinylated CRD2 on streptavidin beads, antibody titrated, flow cytometry
[9] = target: human Galectin-9 CRD2 (residues 218-355) (human) (UniProt O00182); test: SPR, One Step method, Pioneer; immobilized human CRD2; no measurable off rate
[10] = target: human Galectin-9 CRD2 (residues 218-355) (human) (UniProt O00182); test: SPR, One Step method, Pioneer; immobilized human CRD2; KD below the measurable limit of assay
[11] = target: human Galectin-9 CRD2 (residues 218-355) (human) (UniProt O00182); test: bead assay, flow cytometry: biotinylated Galectin-9 CRD2 on streptavidin beads, G9.2-17 human IgG4 titrated
A288S = target: T1, A288S; test: bead assay: mutant CRD2 on streptavidin beads, G9.2-17 titrated, KD from the saturation curve, ΔΔG against wild type
T1 sequence (single chain): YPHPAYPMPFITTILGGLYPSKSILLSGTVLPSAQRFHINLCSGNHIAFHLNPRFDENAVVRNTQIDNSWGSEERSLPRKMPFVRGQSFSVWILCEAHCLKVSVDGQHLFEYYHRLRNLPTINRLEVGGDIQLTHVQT

Protein sequences, listed by entry. Tags and fused reporters are not part of them. Residues count along the entry.
UniProt P97840, residues 226-354: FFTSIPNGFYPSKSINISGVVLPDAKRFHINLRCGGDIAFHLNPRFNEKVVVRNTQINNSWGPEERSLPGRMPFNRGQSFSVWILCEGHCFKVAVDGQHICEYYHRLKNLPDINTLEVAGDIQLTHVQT

L210A = target: T2, L210A; test: as above
T2 sequence (single chain): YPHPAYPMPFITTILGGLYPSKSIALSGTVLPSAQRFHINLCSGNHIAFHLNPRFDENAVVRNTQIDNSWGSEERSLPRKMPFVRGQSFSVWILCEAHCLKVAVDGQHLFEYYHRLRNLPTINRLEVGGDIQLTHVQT

S208A = target: T3, S208A; test: as above
T3 sequence (single chain): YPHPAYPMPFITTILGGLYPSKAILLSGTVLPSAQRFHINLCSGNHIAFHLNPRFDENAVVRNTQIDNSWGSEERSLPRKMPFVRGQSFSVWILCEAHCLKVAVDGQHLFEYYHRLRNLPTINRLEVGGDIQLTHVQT

S212A = target: T4, S212A; test: as above
T4 sequence (single chain): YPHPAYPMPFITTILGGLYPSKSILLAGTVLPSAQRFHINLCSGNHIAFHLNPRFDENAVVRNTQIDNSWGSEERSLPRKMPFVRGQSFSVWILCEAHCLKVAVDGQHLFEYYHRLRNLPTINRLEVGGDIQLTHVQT

S275A = target: T5, S275A; test: as above
T5 sequence (single chain): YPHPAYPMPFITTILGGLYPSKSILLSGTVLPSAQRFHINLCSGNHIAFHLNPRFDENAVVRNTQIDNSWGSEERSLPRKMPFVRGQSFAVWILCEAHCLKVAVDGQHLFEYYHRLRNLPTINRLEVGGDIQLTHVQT

V289A = target: T6, V289A; test: as above
T6 sequence (single chain): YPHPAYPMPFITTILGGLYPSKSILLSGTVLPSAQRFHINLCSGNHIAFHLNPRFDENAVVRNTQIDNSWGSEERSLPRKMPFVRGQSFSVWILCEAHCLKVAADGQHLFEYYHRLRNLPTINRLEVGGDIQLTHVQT

[12] = target: human Galectin-9 CRD2 (residues 218-355) (human) (UniProt O00182); test: bead assay, flow cytometry: G9.2-17 varied up to 1000 nM with 200 nM galectin-9 CRD2; read-out is CRD2 bound to MuSK ECR on beads; the antibody raises and does not block this binding
[13] = target: human Galectin-9 CRD2 (residues 218-355) (human) (UniProt O00182); test: phage ELISA
[14] = target: human Galectin-9 CRD2 (residues 218-355) (human) (UniProt O00182); test: phage ELISA on Galectin-9 CRD2 with phage-displayed G9.2-17
R253E = target: T7, R253E; test: phage ELISA on Galectin-9 CRD2 mutants with phage-displayed G9.2-17
T7 sequence (single chain): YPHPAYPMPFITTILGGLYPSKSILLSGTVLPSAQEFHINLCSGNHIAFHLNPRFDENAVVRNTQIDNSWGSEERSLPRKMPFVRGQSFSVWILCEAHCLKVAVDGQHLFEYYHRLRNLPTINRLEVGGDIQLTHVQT

R271E = target: T8, R271E; test: as above
T8 sequence (single chain): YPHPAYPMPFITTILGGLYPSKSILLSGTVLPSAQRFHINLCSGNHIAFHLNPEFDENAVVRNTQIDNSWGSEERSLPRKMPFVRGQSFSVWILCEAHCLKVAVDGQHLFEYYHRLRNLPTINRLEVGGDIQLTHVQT

R334E = target: T9, R334E; test: as above
T9 sequence (single chain): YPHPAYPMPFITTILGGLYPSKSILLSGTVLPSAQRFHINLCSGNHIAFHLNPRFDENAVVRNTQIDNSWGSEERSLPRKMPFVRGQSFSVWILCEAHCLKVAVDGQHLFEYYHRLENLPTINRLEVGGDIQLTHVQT

R341E = target: T10, R341E; test: as above
T10 sequence (single chain): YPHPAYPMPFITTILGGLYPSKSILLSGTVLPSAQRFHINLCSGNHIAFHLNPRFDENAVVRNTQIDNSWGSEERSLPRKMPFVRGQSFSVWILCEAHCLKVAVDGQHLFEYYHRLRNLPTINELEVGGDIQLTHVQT

Y236E = target: T11, Y236E; test: as above
T11 sequence (single chain): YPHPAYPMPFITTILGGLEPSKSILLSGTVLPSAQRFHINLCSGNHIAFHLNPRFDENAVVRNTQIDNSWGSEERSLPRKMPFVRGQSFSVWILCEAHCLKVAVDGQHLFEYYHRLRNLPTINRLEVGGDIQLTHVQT

Y330E = target: T12, Y330E; test: as above
T12 sequence (single chain): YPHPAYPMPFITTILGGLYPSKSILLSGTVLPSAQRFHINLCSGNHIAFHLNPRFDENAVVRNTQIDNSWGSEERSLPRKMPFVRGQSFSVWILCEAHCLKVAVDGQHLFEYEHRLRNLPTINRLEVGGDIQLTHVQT

[15] = target: rat galectin-9 CRD2 (rat) (UniProt P97840); test: bead based binding, rat CRD2
[16] = target: cynomolgus monkey galectin-9 CRD2 (cynomolgus monkey); test: bead based binding, cynomolgus CRD2
[17] = target: human Galectin-9 CRD2 (residues 218-355) (human) (UniProt O00182); test: ELISA, antibody titrated over immobilized human CRD2

binding [1]: binds | binding [2]: binds | binding [3]: binds | binding [4]: binds | binding [5]: binds | binding [6]: binds | binding [7]: binds | binding [8]: binds | binding [9]: binds | binding [10]: binds | binding [11]: binds | binding (A288S): binds | binding (L210A): binds | binding (S208A): binds | binding (S212A): binds | binding (S275A): binds | binding (V289A): binds | binding [12]: binds
B1: G9.2-17 human IgG4 (antibody, V domains shown)
VH: EVQLVESGGGLVQPGGSLRLSCAASGFTVSSSSIHWVRQAPGKGLEWVAYISSSSGYTYYADSVKGRFTISADTSKNTAYLQMNSLRAEDTAVYYCARYWSYPSWWPYRGMDYWGQGTLVTVSS
VL: DIQMTQSPSSLSASVGDRVTITCRASQSVSSAVAWYQQKPGKAPKLLIYSASSLYSGVPSRFSGSRSGTDFTLTISSLQPEDFATYYCQQSSTDPITFGQGTKVEIKR

binding [13]: binds | binding [14]: binds | binding (R253E): binds | binding (R271E): binds | binding (R334E): binds | binding (R341E): binds | binding (Y236E): binds | binding (Y330E): binds
B2: G9.2-17 Fab (Fab, V domains shown)
VH: EVQLVESGGGLVQPGGSLRLSCAASGFTVSSSSIHWVRQAPGKGLEWVAYISSSSGYTYYADSVKGRFTISADTSKNTAYLQMNSLRAEDTAVYYCARYWSYPSWWPYRGMDYWGQGTLVTVSS
VL: DIQMTQSPSSLSASVGDRVTITCRASQSVSSAVAWYQQKPGKAPKLLIYSASSLYSGVPSRFSGSRSGTDFTLTISSLQPEDFATYYCQQSSTDPITFGQGTKVEIKR

binding [15]: binds | binding [16]: binds | binding [17]: binds | binding [9]: binds
B3: G9.2-17 mIgG1 (antibody, V domains shown)
VH: EVQLVESGGGLVQPGGSLRLSCAASGFTVSSSSIHWVRQAPGKGLEWVAYISSSSGYTYYADSVKGRFTISADTSKNTAYLQMNSLRAEDTAVYYCARYWSYPSWWPYRGMDYWGQGTLVTVSS
VL: DIQMTQSPSSLSASVGDRVTITCRASQSVSSAVAWYQQKPGKAPKLLIYSASSLYSGVPSRFSGSRSGTDFTLTISSLQPEDFATYYCQQSSTDPITFGQGTKVEIKR
